{"sequences": {"note": "The chains behind the UniProt entries cited, without tags or fusion partners. Residues count along the entry.", "UniProt Q02161, residues 2-417": "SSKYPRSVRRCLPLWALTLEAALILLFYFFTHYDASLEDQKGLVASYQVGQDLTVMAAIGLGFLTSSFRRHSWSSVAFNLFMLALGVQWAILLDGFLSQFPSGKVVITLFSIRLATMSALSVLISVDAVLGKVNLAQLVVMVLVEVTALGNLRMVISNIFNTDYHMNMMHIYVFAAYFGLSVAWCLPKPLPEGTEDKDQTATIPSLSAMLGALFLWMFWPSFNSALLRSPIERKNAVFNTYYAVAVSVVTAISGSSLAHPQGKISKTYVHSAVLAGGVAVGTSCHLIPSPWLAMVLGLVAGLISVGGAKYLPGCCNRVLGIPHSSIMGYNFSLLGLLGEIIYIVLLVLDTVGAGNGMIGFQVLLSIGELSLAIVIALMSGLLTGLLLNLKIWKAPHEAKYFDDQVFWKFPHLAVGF"}, "source": "patent US7038020", "binders": {"B1": {"name": "Fab clone LD2-1 (Fab, V domains shown)", "VH": "QVKLLESGGGVVQPGGSLRLSCVASGFTLRSYGMHWVRQAPGKGLEWVAFIWFDGSNKGYVDSVKGRFTISRDNSKNMVYLQMNSLRADDTAVYYCAREKALRGISRYNYYLDVWGKGTTVTVSS", "VL": "VVTQPPSASGTPGQRVTISCSGSNSILGSKYVYWYQKLPGTAPKLLIYKNDQRPSGVSDRFSGSKSGTSASLAISGLRSEDEADYYCAPWDANLGGPVFGGGTKLTVL"}}, "molecular_target": "Rhesus D antigen (human) (UniProt Q02161)", "test": "haemagglutination, rbc", "note": "No constants are given. Whether binding was seen depends on the method and setting. Some binding calls cover weakened binding; strength is not graded here."}
{"binder": "B1", "values": [{"measurement": "binding", "result": "binds"}]}
